Literature values as cited in US20120177742A1, “NANOPARTICLE AND SURFACE-MODIFIED PARTICULATE COATINGS, COATED BALLOONS, AND METHODS THEREFORE” (MICELL TECHNOLOGIES, INC., priority 2010, published 2012).

Conditions: cited from earlier work

## CO[C@H]1C[C@@H]2CC[C@@H](C)[C@@](O)(O2)C(=O)C(=O)N2CCCC[C@H]2C(=O)O[C@H]([C@H](C)C[C@@H]2CC[C@@H](O)[C@H](OC)C2)CC(=O)[C@H](C)/C=C(\C)[C@@H](O)[C@@H](OC)C(=O)[C@H](C)C[C@H](C)/C=C/C=C/C=C/1C [sirolimus]
  solubility in ethanol: up to 50 mg/ml
